Experimental data from publication PMC11720448.
Results are given in words; binding and its absence hold for the method and conditions named. In cells and extracts the contact can be indirect. Some results given as binding are weak or reduced against the parent protein; the word gives no strength.

The chains behind the UniProt entries cited, without tags or fusion partners. Where a name states a change or a piece, a line headed by the entry shows the natural chain unless it says otherwise.
UniProt Q9UPS8: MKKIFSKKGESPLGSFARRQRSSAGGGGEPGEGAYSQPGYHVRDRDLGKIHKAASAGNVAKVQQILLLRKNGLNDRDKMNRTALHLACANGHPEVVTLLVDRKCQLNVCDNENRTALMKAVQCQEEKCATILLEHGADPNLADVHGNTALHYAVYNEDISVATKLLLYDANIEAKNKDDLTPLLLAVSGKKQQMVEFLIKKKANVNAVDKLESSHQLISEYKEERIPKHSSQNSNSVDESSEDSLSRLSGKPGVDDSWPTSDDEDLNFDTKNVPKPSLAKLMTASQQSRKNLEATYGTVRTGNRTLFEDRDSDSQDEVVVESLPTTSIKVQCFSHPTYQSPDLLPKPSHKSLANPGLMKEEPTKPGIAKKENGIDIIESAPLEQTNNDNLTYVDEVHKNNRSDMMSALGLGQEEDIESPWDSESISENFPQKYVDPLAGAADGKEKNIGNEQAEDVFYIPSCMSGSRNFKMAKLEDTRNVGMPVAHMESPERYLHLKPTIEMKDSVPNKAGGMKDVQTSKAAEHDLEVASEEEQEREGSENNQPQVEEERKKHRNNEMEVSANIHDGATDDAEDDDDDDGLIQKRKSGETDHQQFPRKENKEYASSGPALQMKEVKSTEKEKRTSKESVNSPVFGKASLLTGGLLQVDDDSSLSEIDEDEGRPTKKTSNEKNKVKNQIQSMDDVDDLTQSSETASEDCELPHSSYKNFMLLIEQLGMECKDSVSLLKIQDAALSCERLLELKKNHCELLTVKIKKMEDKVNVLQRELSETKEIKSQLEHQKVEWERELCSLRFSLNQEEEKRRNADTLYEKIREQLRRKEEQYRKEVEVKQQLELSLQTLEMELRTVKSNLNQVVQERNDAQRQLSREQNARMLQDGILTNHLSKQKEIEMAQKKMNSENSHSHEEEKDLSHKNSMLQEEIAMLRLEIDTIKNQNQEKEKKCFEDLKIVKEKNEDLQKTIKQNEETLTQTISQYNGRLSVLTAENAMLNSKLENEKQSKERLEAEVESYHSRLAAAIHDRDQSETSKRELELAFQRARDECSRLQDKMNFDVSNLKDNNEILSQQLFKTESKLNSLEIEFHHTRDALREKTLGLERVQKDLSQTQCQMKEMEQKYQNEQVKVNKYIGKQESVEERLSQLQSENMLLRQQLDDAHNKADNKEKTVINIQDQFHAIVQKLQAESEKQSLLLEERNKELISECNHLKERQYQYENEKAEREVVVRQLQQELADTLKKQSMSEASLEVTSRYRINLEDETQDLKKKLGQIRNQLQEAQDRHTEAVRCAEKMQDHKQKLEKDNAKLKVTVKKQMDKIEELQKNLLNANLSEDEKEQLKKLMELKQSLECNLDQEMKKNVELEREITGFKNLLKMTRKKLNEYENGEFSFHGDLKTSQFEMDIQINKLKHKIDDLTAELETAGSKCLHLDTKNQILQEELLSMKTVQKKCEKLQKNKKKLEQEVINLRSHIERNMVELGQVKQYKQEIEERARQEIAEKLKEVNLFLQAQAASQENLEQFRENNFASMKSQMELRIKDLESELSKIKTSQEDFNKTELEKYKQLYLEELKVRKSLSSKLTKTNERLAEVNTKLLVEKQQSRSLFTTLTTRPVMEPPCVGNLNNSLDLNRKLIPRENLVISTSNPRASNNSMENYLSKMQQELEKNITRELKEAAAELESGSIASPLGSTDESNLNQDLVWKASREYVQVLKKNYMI
UniProt P41212: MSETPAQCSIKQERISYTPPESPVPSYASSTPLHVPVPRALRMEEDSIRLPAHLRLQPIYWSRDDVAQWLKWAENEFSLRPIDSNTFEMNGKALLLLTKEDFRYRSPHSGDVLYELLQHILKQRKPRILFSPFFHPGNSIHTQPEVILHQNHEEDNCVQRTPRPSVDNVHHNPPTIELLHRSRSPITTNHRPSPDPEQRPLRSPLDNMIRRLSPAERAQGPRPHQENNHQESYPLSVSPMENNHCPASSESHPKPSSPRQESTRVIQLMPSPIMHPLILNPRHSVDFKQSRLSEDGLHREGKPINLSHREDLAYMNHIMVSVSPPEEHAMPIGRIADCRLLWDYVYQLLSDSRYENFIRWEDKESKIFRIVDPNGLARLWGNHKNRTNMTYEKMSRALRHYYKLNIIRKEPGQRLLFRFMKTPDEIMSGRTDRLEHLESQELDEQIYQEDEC
UniProt Q13227: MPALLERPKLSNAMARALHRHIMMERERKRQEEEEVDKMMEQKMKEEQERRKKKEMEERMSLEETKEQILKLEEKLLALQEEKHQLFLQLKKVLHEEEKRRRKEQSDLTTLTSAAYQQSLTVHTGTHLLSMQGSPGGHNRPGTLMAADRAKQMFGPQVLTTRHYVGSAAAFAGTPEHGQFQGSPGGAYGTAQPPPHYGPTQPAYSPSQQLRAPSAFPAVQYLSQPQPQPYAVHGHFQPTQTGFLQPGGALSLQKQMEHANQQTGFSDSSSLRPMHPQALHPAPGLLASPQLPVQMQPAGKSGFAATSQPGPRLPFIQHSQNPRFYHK

How the values were obtained:
Experiment in all cases: proximity ligation; HeLa cells overexpressing myc-ETV6 (wt or mutant) and FLAG-ANKRD26 alone or in combination, fixed after 48 h, Duolink In Situ Red Mouse/Rabbit kit; antibody pairs anti-ETV6 + anti-FLAG, anti-GPS2 + anti-FLAG, anti-GPS2 + anti-myc
FLAG-ANKRD26 = FLAG-ANKRD26 (UniProt Q9UPS8)
myc-ETV6 Q347P = myc-ETV6 Q347P (UniProt P41212)
myc-ETV6 = myc-ETV6 (UniProt P41212)
myc-ETV6 W380R = myc-ETV6 W380R (UniProt P41212)

Measured: binding

GPS2 (from UniProt Q13227 1-327)
binds: all assays above
